Assay [1] has as its target GD1 domain of EngA, BACTH fusions (Synechococcus elongatus PCC7942). Nature of the assay: two-hybrid; bacterial two-hybrid (BACTH, reconstitution of B. pertussis adenylate cyclase from T18 and T25) in E. coli BTH101; plate assays on MacConkey-lactose and M63-maltose + X-gal, 0.5 mM IPTG, 30°C; signals classed by eye into five levels.
The target of assay [2] is EngA, BACTH fusions (Synechococcus elongatus PCC7942) (UniProt Q31KP9). The assay is described as above.
The target in assay [3] is His-EngA (N-terminally His-tagged EngA) (Synechococcus elongatus PCC7942) (UniProt Q31KP9). Nature of the assay: pull-down; His-EngA or His-GD1 (6 μg) bound to DynaBeads-Histag, 6 μg PipX–ST added; 50 mM Tris-HCl pH 7, 0.1 M KCl, 10% glycerol, 10 mM MgCl2, 20 mM imidazole, 0.1% Triton-X100, with or without 1 mM GDP, room temperature; elution with 500 mM imidazole; Western blot with antisera against PipX and EngA; both purified.

Protein sequences, listed by entry. Tags and fused reporters are not part of them. Lines headed by an entry give the natural chain unless they say otherwise; changes in a name come on top.
UniProt Q31KP9: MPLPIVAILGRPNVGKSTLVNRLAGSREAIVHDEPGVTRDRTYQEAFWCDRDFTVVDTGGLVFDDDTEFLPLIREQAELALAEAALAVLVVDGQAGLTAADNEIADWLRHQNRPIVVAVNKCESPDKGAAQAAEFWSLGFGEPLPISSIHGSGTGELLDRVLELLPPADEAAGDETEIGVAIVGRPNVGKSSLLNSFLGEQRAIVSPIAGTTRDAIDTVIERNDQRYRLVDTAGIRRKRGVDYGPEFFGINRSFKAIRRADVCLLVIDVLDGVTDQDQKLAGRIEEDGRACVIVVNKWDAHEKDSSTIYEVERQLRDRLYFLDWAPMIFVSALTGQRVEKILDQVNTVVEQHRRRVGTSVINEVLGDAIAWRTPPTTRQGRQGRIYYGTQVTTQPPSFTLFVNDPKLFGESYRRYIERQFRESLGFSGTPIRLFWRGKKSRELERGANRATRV

The target of assay [4] is His-GD1 (N-terminally His-tagged GD1 domain of EngA) (Synechococcus elongatus PCC7942). Described as above.

Results are given in words; binding and its absence hold for the method and conditions named. Binding can be weak; no strength is given. Where a sequence is shown, tags or fusion partners need not be part of it.

B1: PipX 1-70, BACTH fusions (domain or fragment, UniProt Q7X386 1-70)
chain: MASENYLNHPTFGLLYQICSFGDSKELFATLYAQRLFFLVAFDARGTRFEPIGRNEARMLVDNRLRQLRR
B1: the binding entry in assay [1] is recorded as “binds”; in assay [2], “no binding”.

B2: PipX 1-54, BACTH fusions (domain or fragment, UniProt Q7X386 1-54)
chain: MASENYLNHPTFGLLYQICSFGDSKELFATLYAQRLFFLVAFDARGTRFEPIGR
Take B2: the binding entry in assay [2] is reported as “no binding”.

B3: PipX (PII interacting protein X), BACTH fusions (protein, UniProt Q7X386 1-89)
chain: MASENYLNHPTFGLLYQICSFGDSKELFATLYAQRLFFLVAFDARGTRFEPIGRNEARMLVDNRLRQLRRDASLQEYNQLQQVFKQTFL
On to B3, for which the binding entry in assay [1] and in assay [2] was “binds” throughout.

B4: PipX–ST (C-terminally Strep-tagged PipX) (protein, UniProt Q7X386 1-89)
chain: MASENYLNHPTFGLLYQICSFGDSKELFATLYAQRLFFLVAFDARGTRFEPIGRNEARMLVDNRLRQLRRDASLQEYNQLQQVFKQTFL
In the case of B4, the binding entry in assay [3] and in assay [4] was “binds” throughout.

The values above are taken from article PMC8696166.
